Measurements reported in PubChem BioAssay AID2685 (National Center for Advancing Translational Sciences (NCATS), 2010).
This is one part of the list. The main result of the screen is listed elsewhere. These columns were measured beside it and carry no call. Compounds called inactive in the main read-out are mostly missing here. The note in brackets gives the kind of curve behind each potency; many fits are weak.

Experiment: qHTS Assay for Lipid Storage Modulators in Drosophila S3 Cells;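 on cell number change: cells counted by Cell Tracker Red CMTPX staining in the red channel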
Details: BODIPY lipid droplet fluorescence, 18-24 h; for cell number change: measured here: cell count max response, cells fed with added oleic acid
Outline: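 Drosophila S3 cells loaded with oleic acid (400 uM, as added) and compounds at several concentrations; lipid droplets imaged by 488-nm laser-scanning cytometry, 500–530 nm intensity and object ratio to cell channel. Percent activity normalized to 20 uM Triacsin C.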

[1] = measured here: cell number channel AC50, cells fed with added oleic acid
[2] = measured here: lipid fluorescence (Fed channel) AC50, cells fed with added oleic acid

Row | Structure (SMILES) | cell number change [%] | AC50 [1] | AC50 [2]
1 | CCN(CC)c1ccc(-c2nn3c(-c4n[nH]c5c4CCC5)nnc3s2)cc1 | -32.4 | 11.6 µM [falling, partial curve] | 0.13 µM [rising, full curve, poor fit]
2 | COc1ccc(C(=O)CSc2nccn2C)cc1 |  |  | 4.61 µM [rising, partial curve]
3 | C=CCOc1ccc(C(=O)c2ccccc2)c(OCC(=O)NC2(C#N)CCCC2)c1 | -16.2 |  | 0.651 µM [rising, full curve]
4 | O=C(CSc1nnc(Cc2cccs2)n1C1CCCCC1)N1CCN(C(=O)c2ccco2)CC1 | 29.5 |  | 3.26 µM [rising, single point]
5 | CN(C)S(=O)(=O)c1ccc(Cl)c(NC(=O)COC(=O)CCSc2ccccc2)c1 | 13.9 |  | 0.116 µM [rising, full curve, poor fit]
6 | CC(=O)Oc1ccc(N(C(C)=O)S(=O)(=O)c2ccc(C)cc2C)c2ccccc12 | 10.2 |  | 23.1 µM [rising, single point]
7 | O=C(CN1C(=O)c2ccccc2C1=O)N1CCN(c2nnc(-c3ccccc3)c3ccccc23)CC1 |  | 2.31 µM [rising, partial curve] | 4.11 µM [rising, partial curve]
8 | NC(=O)CN1CCCC1c1ccc2c(c1)OCCO2 (configuration not stated) | -33.3 | 29.1 µM [falling, partial curve, poor fit] | 6.51 µM [falling, single point]
9 | Cc1ccc(Cn2nc(C)c(NC(=O)c3cc(-c4ccc5c(c4)OCO5)on3)c2C)cc1 | -66.1 | 16.4 µM [falling, single point] | 7.31 µM [falling, partial curve]
10 | Oc1cc2c(cc1O)CN(C(=S)NCCc1ccc(Cl)cc1)CCC2 | -46.1 | 25.9 µM [falling, single point] | 29.1 µM [falling, single point]
11 | CCCN(CC(=O)Nc1ccccc1C)C(=O)COc1c(Cl)cccc1Cl |  | 3.66 µM [falling, partial curve] | 29.1 µM [falling, single point]
12 | CN(C)S(=O)(=O)c1ccc(NC=O)cc1 | 3.12 |  | 29.1 µM [falling, single point]
13 | O=C(Nc1nc2ccccc2s1)C1c2ccccc2Oc2ccccc21 | 7.89 |  | 2.59 µM [falling, partial curve, poor fit]
14 | O=C1CCC(=O)N1Cc1c(Cl)cccc1Cl | 31.5 | 0.00411 µM [rising, full curve, poor fit] | 20.6 µM [rising, partial curve]

Complete entries as entered above.
NC(=O)CN1CCCC1c1ccc2c(c1)OCCO2 (configuration not stated) as listed: cell number change [%]: -33.3; AC50 [1]: 29.1 µM [falling, partial curve, poor fit]; AC50 [2]: 6.51 µM [falling, single point]
O=C1CCC(=O)N1Cc1c(Cl)cccc1Cl as listed: cell number change [%]: 31.5; AC50 [1]: 0.00411 µM [rising, full curve, poor fit]; AC50 [2]: 20.6 µM [rising, partial curve]
